# Experimental data as given in PubChem BioAssay AID901 (National Center for Advancing Translational Sciences (NCATS), 2007).
# The list shows a part of the results. The main result of the screen is listed elsewhere. These columns were measured beside it and carry no call. Compounds called inactive in the main read-out are mostly missing here. Potencies come from curve fits of mixed quality, noted in brackets.
# Experiment: qHTS Assay for Identifying the Cell-Membrane Permeable IMPase Inhibitors
# Conditions: CHO-M1 cells, IP1 accumulation, HTRF TR-FRET ratio; measured here: donor channel 620 nm AC50
row,Structure (SMILES),AC50
1,Cc1cc(NC(=O)c2ccc(S(=O)(=O)N3CCCC3)cc2)nc2c1c(=O)oc1ccccc12,"31.6 µM [rising, single point]"
2,CCCOc1ccc2oc(=O)c3c(c2c1)CCCN3C(=O)CN1CCc2ccccc2C1,"6.31 µM [falling, full curve, poor fit]"
3,COc1ccc(-c2nc3scc(-c4ccc(OC)c(OC)c4)c3c(=O)o2)cc1,"0.0316 µM [rising, full curve]"
4,CCc1nc(SCC(=O)Nc2nc3c(s2)CCCC3)c2ccccc2n1,"10 µM [rising, single point]"
5,O=C(c1cc2c(s1)-c1ccccc1OC2)N1CCN(c2ccccc2)CC1,"12.6 µM [rising, single point]"
6,Cn1nnnc1SCC(=O)NC(C)(C)C,"1 µM [falling, partial curve, poor fit]"
7,CCOC(=O)c1c(CN2CCN(CCO)CC2)n(C)c2cc(Br)c(OC)cc12,"31.6 µM [falling, single point]"
8,c1cncc(-c2nc3ccccc3o2)c1,"15.8 µM [falling, single point]"
9,Clc1ccc2noc(-c3ccccc3)c2c1,"31.6 µM [falling, single point]"
10,Cc1ccc(Cl)cc1N1CCN(CCNC(=O)Nc2ccccc2Cl)CC1,"11.2 µM [rising, partial curve, poor fit]"
11,Cc1nonc1NC(=O)CSc1ccc(-c2ccccc2)nn1,"3.16 µM [rising, full curve]"
12,O=C1/C(=C/c2ccc([N+](=O)[O-])cc2)C=C(c2ccccc2)N1c1ccccc1,"3.16 µM [rising, full curve, poor fit]"
13,O=c1oc2cc(OCc3ccc(F)cc3F)ccc2cc1-c1ccccn1,"25.1 µM [rising, single point]"
14,O=C(COc1ccc2ccccc2c1)NCCNC(=O)COc1ccc2ccccc2c1,"31.6 µM [rising, single point]"
15,Nc1nc(-c2ccccc2Br)cs1,"0.0126 µM [falling, full curve]"
16,COc1ccc(-c2nc(CNS(=O)(=O)c3ccc(OC)c(OC)c3)cs2)cc1,"0.708 µM [falling, full curve, poor fit]"
17,Cc1cc(C)cc(C(=O)Nc2ccc(-c3nc4ncccc4o3)cc2)c1,"10 µM [rising, partial curve, poor fit]"
18,Clc1ccccc1-c1cc(COc2ccc3ccccc3c2)no1,"0.398 µM [falling, full curve, poor fit]"
19,Cc1ccc(NC(=O)c2cnn3c(C(F)F)cc(-c4ccccc4)nc23)c(C)c1,"11.2 µM [falling, partial curve, poor fit]"
20,CCc1ccc(N=C2NC(=O)CC(C(=O)Nc3ccc(OC)cc3)S2)cc1 (centres undefined),"0.158 µM [falling, full curve, poor fit]"
21,CCN1CCCC1CNC(=O)CSc1cc(=O)n(C)c2cc(Cl)ccc12 (centres undefined),"10 µM [rising, partial curve]"
22,O=S(=O)(c1ccccc1)N1CCN(c2ncnc3sc(-c4ccccc4)cc23)CC1,"31.6 µM [rising, single point]"

# Reprinted at random: two entries already listed.
row,Structure (SMILES),AC50
3,COc1ccc(-c2nc3scc(-c4ccc(OC)c(OC)c4)c3c(=O)o2)cc1,"0.0316 µM [rising, full curve]"
10,Cc1ccc(Cl)cc1N1CCN(CCNC(=O)Nc2ccccc2Cl)CC1,"11.2 µM [rising, partial curve, poor fit]"

# (cont.)

row,Structure (SMILES),AC50
1,O=C(NCCN1CCc2ccccc2C1)Nc1ccc(F)cc1,"35.5 µM [falling, partial curve, poor fit]"
2,CCn1c(SCc2ccc(C(=O)Nc3cc(C)cc(C)c3)cc2)nnc1-c1ccncc1,"0.158 µM [falling, full curve, poor fit]"
3,Cc1c(NC(=O)C(C)Sc2nc3ccccc3c(=O)n2CCO)c(=O)n(-c2ccccc2)n1C (centres undefined),"31.6 µM [falling, single point]"
4,CCOc1ccc(-c2nnn(CC(=O)NCc3ccc4c(c3)OCO4)n2)cc1,"0.0631 µM [rising, full curve]"
5,COc1ccccc1CNC(=O)CCS(=O)(=O)c1ccc2c(c1)CCCN2C(C)=O,"5.01 µM [rising, partial curve, poor fit]"
6,CCc1ccccc1NC(=O)CSc1nnc([C@@H]2CCCN2C(=O)OC(C)(C)C)o1,"0.0251 µM [rising, full curve, poor fit]"
7,CCc1sc(C(=O)Nc2ccc(F)cc2C)cc1C,"12.6 µM [rising, partial curve]"
8,Cc1ccc(C(=O)Oc2ccc(C(=O)COC(=O)C3CC(=O)N(Cc4ccco4)C3)cc2)cc1 (centres undefined),"0.0794 µM [falling, partial curve]"
9,COC(=O)c1sc(NC(=O)C2c3ccccc3Oc3ccccc32)c(C(=O)OC)c1C,"35.5 µM [rising, single point]"
10,Cc1ccc(C(=O)Nc2ccc(C(=O)O)cc2)cc1S(=O)(=O)Nc1ccccc1,"6.31 µM [falling, single point]"
11,CN1CCN(C(=O)c2c(NC(=O)c3ccco3)sc3c2CCC(C(C)(C)C)C3)CC1 (centres undefined),"0.0158 µM [rising, full curve, poor fit]"
12,CCCn1nc(C(=O)NCC(C)(C)N2CCOCC2)c2ccccc2c1=O,"31.6 µM [rising, single point]"
13,C=CCn1c(SCC(=O)Nc2ccc3c(c2)OCCO3)nnc1-c1ccccn1,"0.0631 µM [rising, full curve, poor fit]"
14,CC(=O)Nc1ccc(N2C(=O)CSC2c2ccc(F)cc2)cc1 (centres undefined),"35.5 µM [falling, single point]"
15,COc1ccccc1NC(=O)c1ccc(NS(C)(=O)=O)cc1,"31.6 µM [rising, single point]"
16,Nc1c(S(=O)(=O)O)cc(Nc2ccc(Nc3nc(Cl)nc(Nc4ccc(S(=O)(=O)O)cc4)n3)c(S(=O)(=O)O)c2)c2c1C(=O)c1ccccc1C2=O,"12.6 µM [falling, partial curve]"
17,Nc1ccc(Nc2nc(-c3ccncc3)cs2)cc1,"12.6 µM [falling, single point]"
18,COc1ccc(C(=O)NCCCCCC(=O)O)cc1OC,"31.6 µM [falling, single point]"
19,O=C(NCC(c1cccnc1)N1CCOCC1)Nc1ccccc1 (centres undefined),"1.58 µM [falling, partial curve, poor fit]"
20,O=C(CSc1nnc(-c2ccncc2)n1CC1CCCO1)NCc1ccccc1 (centres undefined),"0.02 µM [falling, full curve, poor fit]"
21,CCCCn1c(NCCC)nc2c1c(=O)[nH]c(=O)n2C,"0.01 µM [falling, full curve]"
22,CCOC(=O)c1ccc(N2C(=O)C(O)=C(C(C)=O)C2c2ccc(O)c(OC)c2)cc1 (centres undefined),"12.6 µM [falling, partial curve, poor fit]"

row,Structure (SMILES),AC50
1,CCOc1ccccc1NC(=O)c1nc[nH]c1C(=O)Nc1ccccc1OCC,"0.0501 µM [rising, full curve, poor fit]"
2,Nc1c(C(=O)Nc2nc3ccccc3s2)sc2nc(-c3cccs3)ccc12,"12.6 µM [rising, partial curve]"
3,COc1ccc(N2CCN(c3c(S(=O)(=O)c4ccccc4)cnc4ccc(OC)cc34)CC2)cc1,"0.02 µM [falling, full curve, poor fit]"
4,c1ccc(N2CCN(c3ccccc3)C2c2cccnc2)cc1,"0.794 µM [falling, full curve]"
5,CCC(C)(C)C1CCc2c(sc(NC(=O)c3ccoc3C)c2C(N)=O)C1 (centres undefined),"3.98 µM [falling, partial curve]"
6,Cc1c(NCc2nc3ccccc3[nH]2)c(=O)n(-c2ccccc2)n1C,"0.316 µM [rising, partial curve, poor fit]"
7,COc1ccc(N2C(=O)CC(N3CCN(c4nc5ccccc5s4)CC3)C2=O)cc1 (centres undefined),"0.794 µM [falling, full curve]"
8,OCCNc1nc2ccccc2n1CCN1CCCCC1,"2.51 µM [falling, single point]"
9,CC(=O)N1c2ccccc2C(C)(C)C2CCC(C)CC21 (centres undefined),"0.2 µM [falling, full curve]"
10,Cc1cccc(Cn2c(N3CCc4ccccc4C3)nc3c2c(=O)[nH]c(=O)n3C)c1,"31.6 µM [rising, single point]"
11,CCOc1ccc(/C(O)=C2/C(=O)C(=O)N(CCOCCO)C2c2ccccc2)cc1 (centres undefined),"20 µM [rising, partial curve, poor fit]"
12,CCn1c(COc2ccc(=O)n(-c3ccccc3)n2)nnc1SCc1cccc(OC)c1,"1.26 µM [rising, full curve, poor fit]"
13,Cc1nc2ccccc2c(=O)n1NC(=O)c1c(O)c2c(n(CC(C)C)c1=O)CCCC2,"0.631 µM [falling, full curve]"
14,C=CCNC(=S)NNC(=O)C(CCCC)CC(C)(C)O (centres undefined),"0.158 µM [rising, single point]"
15,O=C(c1nc2nc(-c3ccccc3)cc(C(F)(F)F)n2n1)N1CCCCC1,"3.98 µM [falling, full curve, poor fit]"
16,COC(=O)c1c(NC(=O)c2ccc(C)cc2)sc(Cc2ccccc2)c1C,"0.0316 µM [rising, full curve, poor fit]"
17,N#C/C(=C(/O)C(Cl)c1ccccc1)c1nc2ccccc2s1 (centres undefined),"10 µM [falling, single point]"
18,O=C(NCc1cccs1)c1ccc2c(c1)OCCO2,"31.6 µM [rising, single point]"
19,COc1ccccc1N1CCN(C(=O)c2c(-c3ccccc3Cl)noc2C)CC1,"5.01 µM [rising, single point]"
20,O=C(CSc1nc(Nc2ccccc2)nc(N2CCOCC2)n1)Nc1ccc2c(c1)OCCO2,"0.158 µM [falling, partial curve, poor fit]"
